We go through 19 molecules from paper PMC10986609, “Identification of fungal natural products with potent inhibition in Toxoplasma gondii” (Microbiology Spectrum, 2024).

Non-standard residues stand in square brackets, D forms with d. Residues, ends and D or L forms follow the SMILES beside them. *: point of attachment. X1 = CC(C)C[C@@H](CN1CCC[N+]2=C1CCC2)N*; Pip = O=C(O)[C@@H]1CCCCN1; Iva = CC[C@](C)(N)C(=O)O; Aib = CC(C)(N)C(=O)O; βAla = NCCC(=O)O Where only a bound is given, the exact number is not on record here.

The first data set has as its system Toxoplasma gondii tachyzoites (RH88). The settings on record: TgRH88 IC50 versus PfDd2 IC50. Here is the method:
For the initial fixed concentration screening and IC50 determination in T. gondii, we utilized a luciferase expressing RH88 strain to quantify the number of live, actively replicating parasites. To construct this strain, the Fluc and DHFR selection markers had been integrated into the UPRT locus through CRISPR/Cas9, rendering the strain pyrimethamine-resistant ([6]). Screening was performed using a pure compound library provided by the University of Oklahoma Natural Products Discovery Group, containing 683 compounds derived primarily from fungal secondary metabolites. For purposes of testing, HFFs were grown in 96-well microtiter plates in preparation. The media we used to grow cells was referred to a D10 media that was composed of Dulbecco's Modified Eagle Medium (Thermo Fisher; Cat # 11995073), 10% Fetal Bovine Serum (Sigma-Aldrich; Cat # 12306C), 1 × non-essential amino acids (100 ×; Thermo Fisher; Cat # 11140050), HEPES buffer (1M; Fisher Scientific; Cat # SH3023701) at 0.4M, and 10 mg/mL of gentamicin (Fisher Scientific; Cat # 15710072). Compounds were then diluted to 10 µM in 100 µL of fresh D10 media. Each plate utilized artemisinin and DMSO vehicle controls. To each well, 2,500 parasites per 100 µL of D10 media were added. Three technical replicates were then performed. After 48 hours, 160 µL of the D10 media was removed, and plates were subjected to freezing then thawing. Following this, 10 µL of the passive lysis buffer (Promega; Cat# E1910) was added and incubated at room temperature for 15 min. Finally, 100 µL of luciferase assay reagent (Promega; Cat# E1501) was added to each well, and luminescence was measured using a PHERAstar FSX plate reader (BMG Labtech, Germany).
For IC50 and cytotoxicity determination, we used 384 plates with confluent HFF cells. Compounds were serially diluted 3-fold with a starting concentration of 20 µM. Samples were further diluted by adding an equal volume of media containing 700 parasites. DMSO and […] of KAE609 were used as negative and positive controls, respectively. Assays were performed with a total of three technical replicates and two biological replicates. After incubation for 48 hours, 50 µL of media was removed, and plates were subjected to freezing and thawing. Following this, 10 µL of passive lysis buffer was added and plates were incubated for 15 min at room temperature. Finally, 30 µL of luciferase reagent was added, and the luminescence was measured immediately using a PHERAstar FSX. In parallel, cytotoxicity dose response was performed in the same fashion without the addition of parasites. Cell counting kit-8 reagent (GlpBio; Cat # GK10001) was added at a 1:10 dilution and incubated at 37°C, 5% CO2 for 1 hour. The absorbance was then measured at 450 nm using a PHERAstar FSX. The data management system CDD vault was used for curve fitting and IC50 determination.
For `CC[C@](C)(NC(=O)[C@H](CC(C)C)NC(=O)[C@H](C)NC(=O)C(C)(C)NC(=O)[C@@H]1CCCCN1C(=O)C(C)(C)NC(=O)C(C)(C)NC(=O)CNC(=O)CCNC(=O)[C@H](CC(C)C)NC(=O)C(C)(C)NC(=O)C(C)(C)NC(=O)[C@@H]1CCCCN1C(=O)C(C)(C)NC(=O)[C@@H]1CCCCN1C(C)=O)C(=O)N[C@@H](CC(C)C)CN1CCC[N+]2=C1CCC2` [compound 150003, Efrapeptin F] (Ac-[Pip][Aib][Pip][Aib][Aib]L[βAla]G[Aib][Aib][Pip][Aib]AL[Iva]-X1; N-terminus and C-terminus assumed), the “times more potent in T. gondii as compared to P. falciparum” value is reported as 7.

`COC(=O)[C@]12Oc3cc4c(c(O)c3C(=O)C1=C(O)CC[C@@H]2O)[C@@H]1C=C[C@@]2(C4)C(=O)c3cc(C)cc(O)c3C(O)=C2C1=O` [compound 130147, Xanthoquinodin A2]: the “times more potent in T. gondii as compared to P. falciparum” value was found to be 12.

For the molecule `CC[C@](C)(NC(=O)[C@H](CC(C)C)NC(=O)[C@H](C)NC(=O)C(C)(C)NC(=O)[C@@H]1CCCCN1C(=O)C(C)(C)NC(=O)C(C)(C)NC(=O)CNC(=O)CCNC(=O)[C@H](CC(C)C)NC(=O)C(C)(C)NC(=O)[C@](C)(CC)NC(=O)[C@@H]1CCCCN1C(=O)C(C)(C)NC(=O)[C@@H]1CCCCN1C(C)=O)C(=O)N[C@@H](CC(C)C)CN1CCC[N+]2=C1CCC2` [compound 150004, Efrapeptin G] (Ac-[Pip][Aib][Pip][Iva][Aib]L[βAla]G[Aib][Aib][Pip][Aib]AL[Iva]-X1; N-terminus and C-terminus assumed), the “times more potent in T. gondii as compared to P. falciparum” value came to 37.

Turning to `COC(=O)[C@@]12Oc3cc4c(c(O)c3C(=O)C1=C(O)CC[C@@H]2O)[C@@H]1C=C[C@@]2(C4)C(=O)c3cc(C)cc(O)c3C(O)=C2C1=O` [compound 130144, Xanthoquinodin A1], the “times more potent in T. gondii as compared to P. falciparum” value is 2.

The same data set, now with this note: selectivity index, HFF versus TgRH88.
On to `COC(=O)C1=CC(O)C(O)C(O)C1N1CC(O)C(OC(C)=O)C1Cc1ccc(OC)cc1` (stereo not shown) [compound 150029], for which the SI came to 49.

`CCCCC[C@@H](O)C[C@@H](O)C[C@@H]1Cc2cc3cc(OC)c(-c4c(OC)cc5cc6c(c(O)c5c4O)C(=O)O[C@H](C[C@H](O)C[C@H](O)CCCCC)C6)c(O)c3c(O)c2C(=O)O1` [compound 150020, Dinapinone A]: the SI amounted to 2.

Take `COC(=O)C12Oc3c(c(O)cc4c3C3C=CC5(C4)C(=O)c4cc(C)cc(O)c4C(O)=C5C3=O)C(O)=C1C(=O)CCC2O` (stereo not shown) [compound 130143, Xanthoquinodin B2]: the SI was over 153.

On to `C[C@@H]1CC[C@H]2[C@@H](C)C(=O)O[C@@H]3O[C@@]4(C)CC[C@@H]1[C@]32OO4` [Artemisinin, reference compound], for which the SI was 15.

For “Alpha-cyclopiazonic acid [compound 170027]”, the SI is recorded as over 36.

With PF-1140 [compound 120159], the SI is on record as over 6.

Turning to `C[C@H]1CCC/C=C/[C@@H]2C[C@H](O)C[C@H]2[C@H](O)/C=C/C(=O)O1` [compound 160010, Brefeldin A], the SI is 26.

As to `CC[C@](C)(NC(=O)[C@H](CC(C)C)NC(=O)[C@H](C)NC(=O)C(C)(C)NC(=O)[C@@H]1CCCCN1C(=O)C(C)(C)NC(=O)C(C)(C)NC(=O)CNC(=O)CCNC(=O)[C@H](CC(C)C)NC(=O)C(C)(C)NC(=O)C(C)(C)NC(=O)[C@@H]1CCCCN1C(=O)C(C)(C)NC(=O)[C@@H]1CCCCN1C(C)=O)C(=O)N[C@@H](CC(C)C)CN1CCC[N+]2=C1CCC2` [compound 150003, Efrapeptin F] (Ac-[Pip][Aib][Pip][Aib][Aib]L[βAla]G[Aib][Aib][Pip][Aib]AL[Iva]-X1; N-terminus and C-terminus assumed), the SI was over 360.

In the case of `C[C@H]1Cc2c([nH]c3cc(Cl)c(F)cc23)[C@@]2(N1)C(=O)Nc1ccc(Cl)cc12` [KAE609, reference compound], the SI is given as over 46.

For the molecule `COc1c(C[C@@H](C)OC(=O)Oc2ccc(O)cc2)c2c3c(C[C@@H](C)OC(=O)c4ccccc4)c(OC)c(=O)c4c(O)cc(OC)c(c5c(OC)cc(O)c(c1=O)c52)c43` [compound 170068, Calphostin C], the SI is on record as over 17.

As to Verticillin [compound 130038], the SI came out at 1.

Consider `C=C1Cc2ccc3[nH]c4c(c3c2[C@H]2[C@@H]1C[C@@H]2C(C)(C)O)C[C@@H]1CC[C@@]2(O)C3=C[C@@H](O)[C@@H](C(=C)C)O[C@H]3CC[C@]2(C)[C@@]41C` [compound 120253, Secopenitrem D], for which the SI is reported as over 1.

Turning to `COC(=O)[C@@]12Oc3ccc(-c4ccc5c(c4O)C(O)C4=C(O)C[C@H](C)[C@@H](O)[C@]4(C(=O)OC)O5)c(O)c3C(=O)C1=C(O)C[C@H](C)[C@H]2O` (stereo partly shown) [compound 130002, Secalonic acid D], the SI was 11.

As for `COC(=O)[C@]12Oc3cc4c(c(O)c3C(=O)C1=C(O)CC[C@@H]2O)[C@@H]1C=C[C@@]2(C4)C(=O)c3cc(C)cc(O)c3C(O)=C2C1=O` [compound 130147, Xanthoquinodin A2], the SI came to 218.

Turning to `CC(O)[C@@]12SS[C@]3(C(=O)N1C)[C@@H](O)C1([C@@]45c6ccccc6N[C@@H]4N4C(=O)[C@]6(C(C)O)SS[C@]4(C(=O)N6C)[C@H]5O)c4ccccc4N[C@@H]1N3C2=O` (stereo partly shown) [compound 130016, Verticillin D], the SI is 26.

Regarding `COC(=O)c1c(Sc2c(O)cc(OC)c(C(=O)c3c(O)cc(C)cc3O)c2C(=O)OC)c(O)cc(OC)c1C(=O)c1c(O)cc(C)cc1O` [compound 150052, Polluxochrin], the SI is recorded as over 75.

In the case of `CC1=C[C@@H]2/C=C(\C)CC[C@H](O)[C@H](O)/C=C/C(=O)[C@]23C(=O)N[C@@H](CC(C)C)[C@@H]3[C@@H]1C` [compound 170081, Aspochalasin D], the SI is 24.

Turning to `COC(=O)[C@@]12Oc3cc4c(c(O)c3C(=O)C1=C(O)CC[C@@H]2O)[C@@H]1C=C[C@@]2(C4)C(=O)c3cc(C)cc(O)c3C(O)=C2C1=O` [compound 130144, Xanthoquinodin A1], the SI worked out at 115.
